PubChem BioAssay AID1259254 – NCATS – 2017
Purpose: 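Finding genes that stop cells copying their DNA twice in one cycle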 (primary screen). System: human HCT116 colorectal cancer cells. Reagents: single siRNA against human genes. Timing: 3 days. Measured: 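Imaged Hoechst DNA stain sorts each cell into a cycle phase by DNA amount; per plate, G2 fraction set to 0% for non-targeting and 100% for GMNN siRNA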. Scale: G2 robust z-score: higher = more G2 cells, more excess DNA replication. Rule for the call: 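An siRNA counts as active if its G2 robust z-score lies at least 5 MADs above the screen median; here such calls match roughly 38% of GMNN control or more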.
This is an unselected part of about 59,000 reagents. About 1,550 of all reagents (2.6%) count as active. 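G2 share is only a proxy for re-replication; each gene was hit by three separate siRNAs, and active genes were retested.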 Unmarked entries are inactive. The numbers tell different reagents against one gene apart. Not all columns of the deposit are shown. No sequences are given here. The record does not give: the amount of reagent.

After knock-down of ZNF821 #1 the results were G2 robust z-score -1.29.
Silencing of ZNF821 #2 came out at: G2 robust z-score -0.103.
Knock-down of ZNF821 #3 resulted in: G2 robust z-score -0.786.
After knock-down of PRKAB2 #1, the record shows G2 robust z-score -0.261.
Against PRKAB2 #2, the entry reads G2 robust z-score -0.14.
Knock-down of PRKAB2 #3 resulted in: G2 robust z-score -0.465.
Against RPS18P10 #1, the entry reads G2 robust z-score 2.72.
For RPS18P10 #2, the values are G2 robust z-score 0.454.
RPS18P10 #3 gave G2 robust z-score -0.215.
Depletion of KRT2 #1 gave: G2 robust z-score 0.99.
Knock-down of KRT2 #2 came out at: G2 robust z-score 0.347.
With knock-down of KRT2 #3 the results were G2 robust z-score 1.06.
Silencing of FAM120C #1 came out at: G2 robust z-score 1.58.
Against FAM120C #2, the entry reads G2 robust z-score 0.385.
FAM120C #3 gave G2 robust z-score 1.41.
CACNG2 #1 gave G2 robust z-score 1.83.
Depletion of CACNG2 #2 gave: G2 robust z-score 1.5.
Against CACNG2 #3, the values are G2 robust z-score -0.744.
Against RNF224 #1 the deposit lists G2 robust z-score 3.43.
Depletion of RNF224 #2 came out at: G2 robust z-score 0.0757.
With knock-down of RNF224 #3, the record shows G2 robust z-score -0.659.
Depletion of DKK1 #1 gave: G2 robust z-score -1.16.
Knock-down of DKK1 #2 resulted in: G2 robust z-score 0.814.
Silencing of DKK1 #3 came out at: G2 robust z-score 0.812.

Taken from above.
Under “G2 robust z-score”, KRT2 #1 has 0.99
Entry for DKK1 #3 in “G2 robust z-score”: 0.812
Entry for PRKAB2 #3 under “G2 robust z-score”: -0.465
For “G2 robust z-score”, ZNF821 #3 is entered as -0.786
